Data: the supplement of paper PMC6411743
± gives the standard deviation of the averaged measurements. Some of the results follow.

Sequences of proteins named here, by UniProt entry; tags and fusion partners are left off. A change or cut given only in a name is not applied to a line headed by its entry.
UniProt Q8IZQ5, whole entry, looked up: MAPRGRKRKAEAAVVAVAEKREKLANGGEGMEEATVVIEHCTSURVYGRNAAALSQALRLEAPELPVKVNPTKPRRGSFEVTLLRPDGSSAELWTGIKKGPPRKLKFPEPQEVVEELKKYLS
UniProt O43847: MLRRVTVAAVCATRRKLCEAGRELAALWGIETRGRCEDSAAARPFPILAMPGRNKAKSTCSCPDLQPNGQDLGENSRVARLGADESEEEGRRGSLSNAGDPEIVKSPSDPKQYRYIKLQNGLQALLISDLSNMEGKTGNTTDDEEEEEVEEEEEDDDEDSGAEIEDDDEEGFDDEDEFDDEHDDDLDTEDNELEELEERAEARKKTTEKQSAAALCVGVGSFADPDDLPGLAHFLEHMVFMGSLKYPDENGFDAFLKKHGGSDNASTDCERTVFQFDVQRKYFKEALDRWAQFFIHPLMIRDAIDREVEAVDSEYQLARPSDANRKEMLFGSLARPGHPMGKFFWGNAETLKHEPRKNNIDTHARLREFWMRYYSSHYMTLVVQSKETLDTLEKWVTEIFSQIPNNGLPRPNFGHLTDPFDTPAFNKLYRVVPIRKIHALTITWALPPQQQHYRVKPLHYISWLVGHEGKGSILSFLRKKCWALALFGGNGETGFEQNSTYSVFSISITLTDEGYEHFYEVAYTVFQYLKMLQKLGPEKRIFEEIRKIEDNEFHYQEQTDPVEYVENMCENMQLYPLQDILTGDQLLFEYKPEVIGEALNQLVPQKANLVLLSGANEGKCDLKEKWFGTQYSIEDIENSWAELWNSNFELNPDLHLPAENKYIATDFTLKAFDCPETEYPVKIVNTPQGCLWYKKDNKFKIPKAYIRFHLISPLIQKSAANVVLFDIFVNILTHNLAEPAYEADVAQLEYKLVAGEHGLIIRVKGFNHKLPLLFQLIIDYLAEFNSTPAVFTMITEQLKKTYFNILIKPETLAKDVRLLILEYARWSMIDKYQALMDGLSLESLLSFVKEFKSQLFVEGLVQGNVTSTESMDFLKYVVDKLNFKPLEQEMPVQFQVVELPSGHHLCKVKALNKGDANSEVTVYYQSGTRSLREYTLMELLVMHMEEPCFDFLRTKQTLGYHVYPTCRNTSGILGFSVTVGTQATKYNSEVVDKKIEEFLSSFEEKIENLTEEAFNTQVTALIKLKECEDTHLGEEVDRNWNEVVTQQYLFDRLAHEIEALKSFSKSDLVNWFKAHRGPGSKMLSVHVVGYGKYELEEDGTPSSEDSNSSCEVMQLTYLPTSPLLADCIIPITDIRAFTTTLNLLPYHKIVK
UniProt Q5T8I9: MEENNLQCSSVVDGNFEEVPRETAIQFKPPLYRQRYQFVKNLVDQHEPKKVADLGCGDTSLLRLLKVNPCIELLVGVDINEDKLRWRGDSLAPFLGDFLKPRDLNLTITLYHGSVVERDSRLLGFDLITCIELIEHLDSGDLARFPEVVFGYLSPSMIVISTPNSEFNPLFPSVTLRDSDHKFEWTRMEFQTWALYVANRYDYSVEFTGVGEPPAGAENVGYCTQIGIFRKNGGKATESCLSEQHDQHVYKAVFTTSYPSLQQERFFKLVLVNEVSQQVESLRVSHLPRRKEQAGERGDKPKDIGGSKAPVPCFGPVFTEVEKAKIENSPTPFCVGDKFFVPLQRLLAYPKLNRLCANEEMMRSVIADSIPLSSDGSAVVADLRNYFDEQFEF
UniProt Q13555: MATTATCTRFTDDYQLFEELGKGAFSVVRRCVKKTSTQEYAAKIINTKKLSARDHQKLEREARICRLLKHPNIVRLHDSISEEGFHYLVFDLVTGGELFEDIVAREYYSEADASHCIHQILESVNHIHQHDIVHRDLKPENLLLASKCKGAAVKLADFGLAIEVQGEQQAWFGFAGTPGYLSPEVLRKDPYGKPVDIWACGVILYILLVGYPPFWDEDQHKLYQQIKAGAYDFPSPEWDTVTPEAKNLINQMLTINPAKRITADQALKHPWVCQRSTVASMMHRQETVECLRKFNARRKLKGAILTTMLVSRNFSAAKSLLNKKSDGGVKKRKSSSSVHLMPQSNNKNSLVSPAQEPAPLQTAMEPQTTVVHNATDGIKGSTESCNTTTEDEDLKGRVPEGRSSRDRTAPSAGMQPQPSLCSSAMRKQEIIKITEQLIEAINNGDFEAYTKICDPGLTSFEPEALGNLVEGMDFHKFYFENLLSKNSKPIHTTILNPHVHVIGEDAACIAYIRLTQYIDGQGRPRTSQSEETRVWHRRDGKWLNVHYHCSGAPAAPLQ
UniProt Q9UL46, whole entry: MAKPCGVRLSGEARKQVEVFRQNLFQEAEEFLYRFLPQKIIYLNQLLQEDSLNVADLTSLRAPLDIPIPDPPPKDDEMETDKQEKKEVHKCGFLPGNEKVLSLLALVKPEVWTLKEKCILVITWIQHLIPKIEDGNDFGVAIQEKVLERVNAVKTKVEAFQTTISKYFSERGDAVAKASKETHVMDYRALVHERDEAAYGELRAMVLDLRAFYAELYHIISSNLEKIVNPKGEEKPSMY
UniProt Q6IAN0: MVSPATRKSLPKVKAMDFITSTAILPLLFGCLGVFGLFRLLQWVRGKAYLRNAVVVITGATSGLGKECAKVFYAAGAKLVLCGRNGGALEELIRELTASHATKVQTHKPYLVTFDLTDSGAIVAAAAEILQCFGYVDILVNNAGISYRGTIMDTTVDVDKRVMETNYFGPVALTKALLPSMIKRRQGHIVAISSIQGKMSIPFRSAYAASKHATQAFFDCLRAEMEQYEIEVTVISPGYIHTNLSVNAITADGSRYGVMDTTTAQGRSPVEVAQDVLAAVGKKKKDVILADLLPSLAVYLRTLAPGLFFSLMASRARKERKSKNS
UniProt Q86XR7, whole entry, looked up: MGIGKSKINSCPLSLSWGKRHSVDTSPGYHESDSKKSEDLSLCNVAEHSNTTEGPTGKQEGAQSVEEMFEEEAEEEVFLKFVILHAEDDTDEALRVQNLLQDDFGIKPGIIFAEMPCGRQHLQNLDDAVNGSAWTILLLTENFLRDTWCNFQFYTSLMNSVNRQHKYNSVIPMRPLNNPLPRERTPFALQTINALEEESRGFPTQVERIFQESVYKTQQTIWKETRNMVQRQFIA
UniProt O94953: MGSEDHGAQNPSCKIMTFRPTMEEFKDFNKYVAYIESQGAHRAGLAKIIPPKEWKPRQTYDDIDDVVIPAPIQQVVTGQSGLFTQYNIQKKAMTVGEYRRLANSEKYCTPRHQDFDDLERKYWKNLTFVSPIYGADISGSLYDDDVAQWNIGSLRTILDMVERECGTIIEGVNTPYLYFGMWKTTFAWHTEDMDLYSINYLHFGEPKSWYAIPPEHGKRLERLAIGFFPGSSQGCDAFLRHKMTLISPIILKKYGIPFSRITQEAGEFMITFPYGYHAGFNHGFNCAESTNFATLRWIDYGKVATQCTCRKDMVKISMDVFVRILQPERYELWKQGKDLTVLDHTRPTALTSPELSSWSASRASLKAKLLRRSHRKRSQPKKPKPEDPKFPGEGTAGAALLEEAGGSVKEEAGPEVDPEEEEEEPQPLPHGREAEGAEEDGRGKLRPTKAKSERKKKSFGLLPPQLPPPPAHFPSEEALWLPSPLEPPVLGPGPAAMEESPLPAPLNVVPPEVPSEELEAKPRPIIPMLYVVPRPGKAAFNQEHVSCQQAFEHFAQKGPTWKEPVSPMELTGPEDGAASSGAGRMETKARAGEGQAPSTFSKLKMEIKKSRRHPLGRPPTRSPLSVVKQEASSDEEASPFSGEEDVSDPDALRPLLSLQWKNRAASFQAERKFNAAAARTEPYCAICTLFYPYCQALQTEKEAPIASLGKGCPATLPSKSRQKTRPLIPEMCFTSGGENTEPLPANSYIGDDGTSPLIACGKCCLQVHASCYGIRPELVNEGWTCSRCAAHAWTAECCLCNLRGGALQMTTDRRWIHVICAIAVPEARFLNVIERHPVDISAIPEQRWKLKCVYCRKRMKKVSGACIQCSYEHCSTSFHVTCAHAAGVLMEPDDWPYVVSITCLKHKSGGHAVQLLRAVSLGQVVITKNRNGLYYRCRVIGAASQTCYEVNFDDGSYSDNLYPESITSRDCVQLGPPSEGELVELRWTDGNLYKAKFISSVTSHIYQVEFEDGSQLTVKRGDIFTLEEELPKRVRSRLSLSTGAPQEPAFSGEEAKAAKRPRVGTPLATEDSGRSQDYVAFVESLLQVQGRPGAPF
UniProt Q9Y5U2: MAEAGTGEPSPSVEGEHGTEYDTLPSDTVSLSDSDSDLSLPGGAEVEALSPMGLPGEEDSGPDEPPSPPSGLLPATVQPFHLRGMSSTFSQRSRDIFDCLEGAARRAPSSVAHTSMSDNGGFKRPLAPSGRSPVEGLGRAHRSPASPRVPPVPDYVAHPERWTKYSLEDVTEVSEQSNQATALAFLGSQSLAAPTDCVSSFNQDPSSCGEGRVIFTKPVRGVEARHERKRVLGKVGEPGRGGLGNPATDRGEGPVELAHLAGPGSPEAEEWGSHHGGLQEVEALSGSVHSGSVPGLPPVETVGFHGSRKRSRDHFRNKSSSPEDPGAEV
UniProt Q9NZ52: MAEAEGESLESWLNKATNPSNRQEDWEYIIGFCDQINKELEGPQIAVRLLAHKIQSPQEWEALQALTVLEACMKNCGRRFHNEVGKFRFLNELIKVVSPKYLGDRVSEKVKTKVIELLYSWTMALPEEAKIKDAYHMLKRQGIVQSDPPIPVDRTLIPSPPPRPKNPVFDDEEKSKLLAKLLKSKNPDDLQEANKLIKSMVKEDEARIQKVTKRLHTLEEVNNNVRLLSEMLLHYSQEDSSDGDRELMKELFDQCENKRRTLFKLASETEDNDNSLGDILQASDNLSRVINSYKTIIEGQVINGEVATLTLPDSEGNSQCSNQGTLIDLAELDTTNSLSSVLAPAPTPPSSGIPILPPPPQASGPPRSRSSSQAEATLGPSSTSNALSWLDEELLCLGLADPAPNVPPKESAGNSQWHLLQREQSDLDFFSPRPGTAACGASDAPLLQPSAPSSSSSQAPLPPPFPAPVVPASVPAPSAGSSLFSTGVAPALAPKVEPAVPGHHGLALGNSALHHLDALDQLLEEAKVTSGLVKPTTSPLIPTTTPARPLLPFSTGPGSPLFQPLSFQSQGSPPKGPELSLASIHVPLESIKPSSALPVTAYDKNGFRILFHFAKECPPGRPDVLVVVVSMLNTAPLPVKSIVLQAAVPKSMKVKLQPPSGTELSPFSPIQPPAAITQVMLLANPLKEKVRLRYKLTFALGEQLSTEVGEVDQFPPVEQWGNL
UniProt Q13454: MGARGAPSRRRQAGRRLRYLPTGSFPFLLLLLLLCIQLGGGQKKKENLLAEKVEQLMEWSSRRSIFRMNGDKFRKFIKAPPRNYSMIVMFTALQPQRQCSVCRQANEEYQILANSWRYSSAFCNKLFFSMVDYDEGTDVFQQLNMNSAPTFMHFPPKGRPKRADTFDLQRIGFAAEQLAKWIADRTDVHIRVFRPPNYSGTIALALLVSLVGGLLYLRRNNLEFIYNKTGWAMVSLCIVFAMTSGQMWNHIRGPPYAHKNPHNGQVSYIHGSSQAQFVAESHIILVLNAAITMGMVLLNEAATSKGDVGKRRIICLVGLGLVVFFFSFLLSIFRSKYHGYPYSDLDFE
UniProt Q8N6M0: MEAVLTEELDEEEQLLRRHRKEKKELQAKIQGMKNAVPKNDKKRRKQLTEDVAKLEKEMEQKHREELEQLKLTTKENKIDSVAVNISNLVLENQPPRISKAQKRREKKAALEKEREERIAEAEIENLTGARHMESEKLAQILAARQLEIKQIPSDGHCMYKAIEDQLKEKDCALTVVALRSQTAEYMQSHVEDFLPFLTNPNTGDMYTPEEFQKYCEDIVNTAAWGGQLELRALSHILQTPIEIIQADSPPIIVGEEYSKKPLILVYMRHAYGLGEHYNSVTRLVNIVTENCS
UniProt P61077: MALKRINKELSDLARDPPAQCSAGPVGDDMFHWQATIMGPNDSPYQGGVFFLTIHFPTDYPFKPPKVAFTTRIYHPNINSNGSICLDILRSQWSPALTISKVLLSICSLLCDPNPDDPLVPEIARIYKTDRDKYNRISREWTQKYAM
UniProt Q9NZ72: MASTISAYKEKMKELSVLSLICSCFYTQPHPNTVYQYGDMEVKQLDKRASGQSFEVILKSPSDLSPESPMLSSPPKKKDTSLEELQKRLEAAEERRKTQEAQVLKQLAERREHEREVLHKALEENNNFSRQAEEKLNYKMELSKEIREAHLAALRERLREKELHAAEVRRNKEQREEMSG
UniProt Q9NR56: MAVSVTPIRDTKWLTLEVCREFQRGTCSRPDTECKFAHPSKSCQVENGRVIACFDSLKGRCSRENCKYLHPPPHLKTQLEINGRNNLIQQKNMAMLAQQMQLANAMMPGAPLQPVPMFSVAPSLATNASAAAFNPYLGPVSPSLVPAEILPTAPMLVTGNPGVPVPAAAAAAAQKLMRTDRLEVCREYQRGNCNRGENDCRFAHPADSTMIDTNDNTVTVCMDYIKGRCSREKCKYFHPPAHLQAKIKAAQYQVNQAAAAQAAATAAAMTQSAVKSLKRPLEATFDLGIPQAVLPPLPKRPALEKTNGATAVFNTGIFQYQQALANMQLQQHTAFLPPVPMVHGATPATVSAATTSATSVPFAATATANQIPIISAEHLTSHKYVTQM

Compound: Nc1nc2c(ncn2[C@@H]2O[C@H](COP(=O)(O)OP(=O)(O)OP(=O)(O)O)[C@@H](O)[C@H]2O)c(=O)[nH]1 [guanosine triphosphate]
Experiment: NP40-soluble protein abundance relative to vehicle (solubility fold change) (ratio); higher = more soluble protein in presence of GTP
Outline: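 Values are fold changes against the detergent-processed vehicle, based on vsn-normalised intensities. Jurkat crude lysate was treated at eight concentrations from 0.1 to 10 mM (10 min at room temperature, then 3 min at 37 °C), solubilised with 0.8% NP40 and benzonase, ultracentrifuged and analysed by TMT-labelled LC-MS/MS over three independent experiments.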

Target	NP40-soluble protein abundance (concentration: 0.1mM)	NP40-soluble protein abundance (concentration: 0.5mM)	NP40-soluble protein abundance (concentration: 1mM)	NP40-soluble protein abundance (concentration: 2mM)	NP40-soluble protein abundance (concentration: 4mM)	NP40-soluble protein abundance (concentration: 6mM)	NP40-soluble protein abundance (concentration: 8mM)	NP40-soluble protein abundance (concentration: 10mM)
A0A087WYP2|Q8IZQ5 (UniProt Q8IZQ5)	0.927 ± 0.051	0.945 ± 0.096	1.04 ± 0.057	1.06 ± 0.094	1.07 ± 0.04	1.09 ± 0.14	1.07 ± 0.079	1.16 ± 0.042
A0A087WYK8|B1AKJ5 and related entries (UniProt O43847)	0.987 ± 0.052	1.03 ± 0.065	0.922 ± 0.039	0.936 ± 0.028	0.8965 ± 0.0066	0.911 ± 0.036	0.869 ± 0.021	0.849 ± 0.029
A0A0A0MRN1|Q5T8I9 (UniProt Q5T8I9)	1.02 ± 0.11	0.965 ± 0.1	0.903 ± 0.15	0.93 ± 0.08	0.908 ± 0.12	0.943 ± 0.012	0.879 ± 0.015	0.932 ± 0.029
A0A0A0MS52|Q13555-2|Q13555-8|Q13555-9 (UniProt Q13555)	0.955 ± 0.044	0.951 ± 0.064	0.932 ± 0.097	0.93 ± 0.1	0.992 ± 0.11	0.987 ± 0.17	0.994 ± 0.13	0.99 ± 0.12
A0A087X1Z3|Q9UL46 (UniProt Q9UL46)	0.855 ± 0.11	0.814 ± 0.067	1.03 ± 0.14	1.04 ± 0.062	1.04 ± 0.094	1.01 ± 0.053	0.919 ± 0.19	1.1 ± 0.18
A0A0C4DGQ8|Q6IAN0 (UniProt Q6IAN0)	0.947 ± 0.14	0.967 ± 0.094	0.853 ± 0.13	0.925 ± 0.031	0.89 ± 0.032	0.913 ± 0.048	0.914 ± 0.077	0.943 ± 0.071
A0A0A0MQS2|F5H0Q6 (UniProt Q8N2M8)	1.06 ± 0.13	1.02 ± 0.11	1.09 ± 0.15	1.08 ± 0.18	1.14 ± 0.19	1.1 ± 0.059	1.19 ± 0.15	1.19 ± 0.14
A0A0A6YYA0|Q86XR7-2|Q9Y3B3 and related entries (UniProt Q9Y3B3+Q86XR7)	0.96 ± 0.033	0.989 ± 0.12	0.892 ± 0.01	0.926 ± 0.016	0.892 ± 0.038	0.946 ± 0.029	0.922 ± 0.013	0.881 ± 0.041
A0A0A0MT83|P26440 (UniProt P26440)	1.04 ± 0.025	1.04 ± 0.052	0.971 ± 0.025	0.968 ± 0.04	0.945 ± 0.06	0.947 ± 0.035	0.926 ± 0.0057	0.904 ± 0.033
A0A0A0MRS4|Q9NVV0 (UniProt Q9NVV0)	0.9182 ± 0.0082	0.923 ± 0.024	0.966 ± 0.024	0.982 ± 0.023	1 ± 0.014	0.934 ± 0.041	1.01 ± 0.016	0.965 ± 0.053
A0A087WYU1|A0A087WZW2|Q9Y5X1 (UniProt Q9Y5X1)	1.02 ± 0.066	1.03 ± 0.038	1.01 ± 0.064	1.06 ± 0.072	0.996 ± 0.058	1.03 ± 0.034	1.08 ± 0.088	1.07 ± 0.066
A0A0C4DFL8|F5GX28 and related entries (UniProt O94953)	0.979 ± 0.09	0.964 ± 0.055	0.924 ± 0.2	0.964 ± 0.19	0.926 ± 0.14	0.873 ± 0.11	0.91 ± 0.17	0.923 ± 0.096
A0A088AWN8|E7EP87 and related entries (UniProt Q9UHQ1)	1.04 ± 0.11	0.988 ± 0.079	0.947 ± 0.13	0.98 ± 0.13	0.926 ± 0.14	0.89 ± 0.12	0.958 ± 0.045	0.89 ± 0.1
A6NCC9 and related entries (UniProt Q9Y5U2)	0.984 ± 0.024	0.978 ± 0.14	1.19 ± 0.12	1.13 ± 0.034	1.15 ± 0.041	1.14 ± 0.028	1.22 ± 0.13	1.22 ± 0.11
A0A087WYN2|J3KSS7 and related entries (UniProt Q9NZ52)	0.909 ± 0.037	0.905 ± 0.087	0.957 ± 0.09	0.915 ± 0.13	0.92 ± 0.14	0.94 ± 0.16	0.921 ± 0.08	0.896 ± 0.057
A0A0A0MS45|J3KNI1 and related entries (UniProt Q9H9E3)	1.03 ± 0.011	1.02 ± 0.042	1.05 ± 0.043	1.04 ± 0.12	0.993 ± 0.039	1.04 ± 0.053	0.999 ± 0.041	0.971 ± 0.055
A0A0A0MTC2|D6RA37 and related entries (UniProt Q13454)	1.07 ± 0.063	1.06 ± 0.13	0.996 ± 0.081	0.95 ± 0.026	0.964 ± 0.032	1.05 ± 0.19	0.93 ± 0.091	0.981 ± 0.14
A0A087X0W9|Q8N6M0 (UniProt Q8N6M0)	0.972 ± 0.062	0.937 ± 0.066	0.927 ± 0.072	0.885 ± 0.084	0.849 ± 0.042	0.901 ± 0.074	0.872 ± 0.055	0.868 ± 0.069
A0A087WY85|P61077 and related entries (UniProt P61077)	1 ± 0.083	0.965 ± 0.054	0.874 ± 0.044	0.888 ± 0.087	0.876 ± 0.064	0.828 ± 0.033	0.795 ± 0.086	0.804 ± 0.087
A0A0A0MRE5|Q9ULH1 and related entries (UniProt Q9ULH1)	1.06 ± 0.029	1.03 ± 0.026	1.08 ± 0.083	1.02 ± 0.082	0.987 ± 0.04	1.04 ± 0.07	1.03 ± 0.055	1 ± 0.023
A0A0J9YW36|Q9NZ72 and related entries (UniProt Q9NZ72)	0.8625 ± 0.0031	0.848 ± 0.012	0.951 ± 0.096	0.9315 ± 0.0066	0.877 ± 0.034	0.96 ± 0.1	0.898 ± 0.063	0.942 ± 0.14
A0A0C4DGV9|P49917 (UniProt P49917)	1.05 ± 0.045	1.18 ± 0.14	1.17 ± 0.18	1.27 ± 0.26	1.32 ± 0.22	1.29 ± 0.23	1.24 ± 0.16	1.21 ± 0.17
A0A087WXU0|Q5SZ82 and related entries (UniProt Q9NWS8)	1.15 ± 0.051	1.16 ± 0.056	1.03 ± 0.035	1.1 ± 0.12	0.978 ± 0.097	1 ± 0.091	0.991 ± 0.12	0.962 ± 0.022
A0A087X011|E9PES4 and related entries (UniProt Q9Y496)	1.02 ± 0.012	1.025 ± 0.01	0.963 ± 0.019	0.957 ± 0.013	0.953 ± 0.019	0.9374 ± 0.0079	0.952 ± 0.021	0.898 ± 0.049
A0A0A0MQX8|C9JP00 and related entries (UniProt Q9NR56)	0.894 ± 0.052	0.869 ± 0.017	0.977 ± 0.05	0.946 ± 0.032	0.921 ± 0.039	0.928 ± 0.072	0.913 ± 0.06	0.955 ± 0.03

Given as comma-separated lines: part of the list above
Target,NP40-soluble protein abundance (concentration: 0.1mM),NP40-soluble protein abundance (concentration: 0.5mM),NP40-soluble protein abundance (concentration: 1mM),NP40-soluble protein abundance (concentration: 2mM),NP40-soluble protein abundance (concentration: 4mM),NP40-soluble protein abundance (concentration: 6mM),NP40-soluble protein abundance (concentration: 8mM),NP40-soluble protein abundance (concentration: 10mM)
A0A087X1Z3|Q9UL46 (UniProt Q9UL46),0.855 ± 0.11,0.814 ± 0.067,1.03 ± 0.14,1.04 ± 0.062,1.04 ± 0.094,1.01 ± 0.053,0.919 ± 0.19,1.1 ± 0.18
A0A0C4DGQ8|Q6IAN0 (UniProt Q6IAN0),0.947 ± 0.14,0.967 ± 0.094,0.853 ± 0.13,0.925 ± 0.031,0.89 ± 0.032,0.913 ± 0.048,0.914 ± 0.077,0.943 ± 0.071
